# From patent US20100092479A1, “Compositions and methods for treatment of viral diseases” (CombinatoRx (Singapore) Pte. Ltd., priority 2008, published 2010)
# At least one structure is not confirmed: it was looked up by name or label, or the drawing left a doubt.
# How the values were obtained:
# HCV RNA = HCV RNA copy number by RT-qPCR in Huh-luc/neo-ET cells; type: cell-based; conditions: 72 hr treatment
# Procedure: Measurement of HCV RNA levels in response to drug were carried out by first seeding Huh-luc/neo-ET cells in 100 μl of medium at 7,500 cells per well for 72 hour drug treatments and allowed to adhere overnight for approximately 20 hours. Compounds were added at a 1:1000 dilution in duplicate and added to cells in 3 separate experiments. Total RNA was harvested using an RNeasy 96-well kit (Qiagen) according to the manufacturer's protocol and quantified using the Quant-iT™ RiboGreen® RNA Reagent (Invitrogen). Purified RNA (4 μl) was added to TaqMan reactions containing 10 μl of QuantiTect Probe RT-PCR Master Mix (Qiagen) and 0.2 μL, of QuantiTect RT Mix. […] All 20 μl reactions were assayed in an Eppy Twin-Tec skirted PCR plate (Eppendorf) and subjected to quantitative one-step RT-PCR with an Eppendorf Realplex4 qPCR machine (Eppendorf) using the following program: 50° C. for 30 min, 95° C. for 15 min, and 40 cycles of 95° C. for 15 s followed by 60° C. for 1 min 15 s. Absolute quantification of HCV RNA copy number was determined by comparing PCR signals to a standard curve generated from dilutions of a 160 by PCR-amplified fragment of the 5′NTR of HCV. […] All qPCR samples quantified by comparison to the standard curve were subsequently normalized to total RNA per sample to account for variations in sample purification and preparation steps. […]
# HMGCR = HMGCR protein expression by western analysis in Huh7 cells; type: cell-based, human; conditions: Huh7 cells treated 16 hrs, GAPDH control
smiles,measurement,setting,value
CCC(C)(C)C(=O)O[C@H]1C[C@@H](C)C=C2C=C[C@H](C)[C@H](CC[C@@H]3C[C@@H](O)CC(=O)O3)[C@H]21 [Simvastatin],effect on HCV RNA replication (viral RNA copy number normalized to total RNA),HCV RNA,proviral effects
same,HMGCR protein expression,HMGCR,apparent overexpression
